Assay results: the supplement of paper PMC10849652
Some of the results follow.

Sequences of proteins named here, by UniProt entry; tags and fusion partners are left off. A change or cut given only in a name is not applied to a line headed by its entry.
UniProt Q9NQT8: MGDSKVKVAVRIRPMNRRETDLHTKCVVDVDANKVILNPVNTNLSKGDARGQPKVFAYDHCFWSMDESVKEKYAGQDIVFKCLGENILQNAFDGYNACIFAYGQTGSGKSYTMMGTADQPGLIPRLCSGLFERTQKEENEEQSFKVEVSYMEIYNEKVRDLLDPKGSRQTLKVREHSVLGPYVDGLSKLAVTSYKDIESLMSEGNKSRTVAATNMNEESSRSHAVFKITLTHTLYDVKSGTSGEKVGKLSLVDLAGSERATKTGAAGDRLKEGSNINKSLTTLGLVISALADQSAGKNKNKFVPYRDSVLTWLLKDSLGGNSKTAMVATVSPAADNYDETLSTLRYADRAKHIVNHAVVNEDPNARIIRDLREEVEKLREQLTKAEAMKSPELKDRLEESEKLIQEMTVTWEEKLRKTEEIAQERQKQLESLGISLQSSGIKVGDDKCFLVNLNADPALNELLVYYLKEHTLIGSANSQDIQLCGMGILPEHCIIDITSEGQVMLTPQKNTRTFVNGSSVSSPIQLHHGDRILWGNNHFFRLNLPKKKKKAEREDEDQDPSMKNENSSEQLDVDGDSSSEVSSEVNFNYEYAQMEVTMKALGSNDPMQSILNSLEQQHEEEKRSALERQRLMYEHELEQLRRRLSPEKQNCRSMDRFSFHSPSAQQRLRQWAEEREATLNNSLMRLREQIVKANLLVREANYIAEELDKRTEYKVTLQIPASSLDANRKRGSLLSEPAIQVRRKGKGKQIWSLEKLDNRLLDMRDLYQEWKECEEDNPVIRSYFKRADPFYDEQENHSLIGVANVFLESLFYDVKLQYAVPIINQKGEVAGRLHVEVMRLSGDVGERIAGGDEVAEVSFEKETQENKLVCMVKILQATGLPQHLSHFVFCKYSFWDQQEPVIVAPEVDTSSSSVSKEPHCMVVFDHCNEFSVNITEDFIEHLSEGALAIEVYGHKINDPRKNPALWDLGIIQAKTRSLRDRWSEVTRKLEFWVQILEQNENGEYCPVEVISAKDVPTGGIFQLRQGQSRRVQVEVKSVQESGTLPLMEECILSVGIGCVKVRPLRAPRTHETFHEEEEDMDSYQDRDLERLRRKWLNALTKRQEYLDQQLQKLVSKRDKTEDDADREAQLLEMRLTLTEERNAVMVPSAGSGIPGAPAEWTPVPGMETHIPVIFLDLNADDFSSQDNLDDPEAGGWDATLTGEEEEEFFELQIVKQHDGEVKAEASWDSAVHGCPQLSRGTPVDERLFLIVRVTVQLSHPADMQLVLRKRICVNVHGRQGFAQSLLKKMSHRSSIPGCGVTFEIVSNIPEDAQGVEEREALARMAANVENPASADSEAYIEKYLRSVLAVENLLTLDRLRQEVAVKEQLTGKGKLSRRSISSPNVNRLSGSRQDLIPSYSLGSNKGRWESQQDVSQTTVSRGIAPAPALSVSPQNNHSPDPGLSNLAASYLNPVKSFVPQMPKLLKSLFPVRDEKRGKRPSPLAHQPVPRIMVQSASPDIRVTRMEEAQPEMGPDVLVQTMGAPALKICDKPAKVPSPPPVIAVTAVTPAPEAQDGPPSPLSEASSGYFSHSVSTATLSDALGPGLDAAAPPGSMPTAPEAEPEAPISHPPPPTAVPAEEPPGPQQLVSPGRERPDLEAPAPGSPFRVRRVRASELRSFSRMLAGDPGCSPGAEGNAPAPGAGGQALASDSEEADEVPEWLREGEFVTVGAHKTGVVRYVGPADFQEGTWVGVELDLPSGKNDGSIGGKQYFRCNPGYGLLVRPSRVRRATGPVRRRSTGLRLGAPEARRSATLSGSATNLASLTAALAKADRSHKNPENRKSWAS
UniProt Q9H0B6: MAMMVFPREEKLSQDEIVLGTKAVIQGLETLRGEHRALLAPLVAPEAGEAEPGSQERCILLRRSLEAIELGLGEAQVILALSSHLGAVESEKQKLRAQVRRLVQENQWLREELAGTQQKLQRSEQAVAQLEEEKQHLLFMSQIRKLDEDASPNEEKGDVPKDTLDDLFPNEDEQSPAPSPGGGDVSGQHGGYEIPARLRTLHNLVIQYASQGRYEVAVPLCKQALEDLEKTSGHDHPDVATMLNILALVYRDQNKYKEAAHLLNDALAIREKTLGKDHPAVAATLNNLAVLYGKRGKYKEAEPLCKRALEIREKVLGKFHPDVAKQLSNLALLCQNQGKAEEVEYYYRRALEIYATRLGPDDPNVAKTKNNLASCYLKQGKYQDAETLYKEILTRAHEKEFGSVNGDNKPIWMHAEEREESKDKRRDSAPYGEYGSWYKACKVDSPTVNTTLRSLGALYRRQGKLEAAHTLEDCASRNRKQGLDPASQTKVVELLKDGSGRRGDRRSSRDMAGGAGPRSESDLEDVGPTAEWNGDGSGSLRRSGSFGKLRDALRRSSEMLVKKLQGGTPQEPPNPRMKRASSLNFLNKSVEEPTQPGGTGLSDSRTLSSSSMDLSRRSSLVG
UniProt O60333: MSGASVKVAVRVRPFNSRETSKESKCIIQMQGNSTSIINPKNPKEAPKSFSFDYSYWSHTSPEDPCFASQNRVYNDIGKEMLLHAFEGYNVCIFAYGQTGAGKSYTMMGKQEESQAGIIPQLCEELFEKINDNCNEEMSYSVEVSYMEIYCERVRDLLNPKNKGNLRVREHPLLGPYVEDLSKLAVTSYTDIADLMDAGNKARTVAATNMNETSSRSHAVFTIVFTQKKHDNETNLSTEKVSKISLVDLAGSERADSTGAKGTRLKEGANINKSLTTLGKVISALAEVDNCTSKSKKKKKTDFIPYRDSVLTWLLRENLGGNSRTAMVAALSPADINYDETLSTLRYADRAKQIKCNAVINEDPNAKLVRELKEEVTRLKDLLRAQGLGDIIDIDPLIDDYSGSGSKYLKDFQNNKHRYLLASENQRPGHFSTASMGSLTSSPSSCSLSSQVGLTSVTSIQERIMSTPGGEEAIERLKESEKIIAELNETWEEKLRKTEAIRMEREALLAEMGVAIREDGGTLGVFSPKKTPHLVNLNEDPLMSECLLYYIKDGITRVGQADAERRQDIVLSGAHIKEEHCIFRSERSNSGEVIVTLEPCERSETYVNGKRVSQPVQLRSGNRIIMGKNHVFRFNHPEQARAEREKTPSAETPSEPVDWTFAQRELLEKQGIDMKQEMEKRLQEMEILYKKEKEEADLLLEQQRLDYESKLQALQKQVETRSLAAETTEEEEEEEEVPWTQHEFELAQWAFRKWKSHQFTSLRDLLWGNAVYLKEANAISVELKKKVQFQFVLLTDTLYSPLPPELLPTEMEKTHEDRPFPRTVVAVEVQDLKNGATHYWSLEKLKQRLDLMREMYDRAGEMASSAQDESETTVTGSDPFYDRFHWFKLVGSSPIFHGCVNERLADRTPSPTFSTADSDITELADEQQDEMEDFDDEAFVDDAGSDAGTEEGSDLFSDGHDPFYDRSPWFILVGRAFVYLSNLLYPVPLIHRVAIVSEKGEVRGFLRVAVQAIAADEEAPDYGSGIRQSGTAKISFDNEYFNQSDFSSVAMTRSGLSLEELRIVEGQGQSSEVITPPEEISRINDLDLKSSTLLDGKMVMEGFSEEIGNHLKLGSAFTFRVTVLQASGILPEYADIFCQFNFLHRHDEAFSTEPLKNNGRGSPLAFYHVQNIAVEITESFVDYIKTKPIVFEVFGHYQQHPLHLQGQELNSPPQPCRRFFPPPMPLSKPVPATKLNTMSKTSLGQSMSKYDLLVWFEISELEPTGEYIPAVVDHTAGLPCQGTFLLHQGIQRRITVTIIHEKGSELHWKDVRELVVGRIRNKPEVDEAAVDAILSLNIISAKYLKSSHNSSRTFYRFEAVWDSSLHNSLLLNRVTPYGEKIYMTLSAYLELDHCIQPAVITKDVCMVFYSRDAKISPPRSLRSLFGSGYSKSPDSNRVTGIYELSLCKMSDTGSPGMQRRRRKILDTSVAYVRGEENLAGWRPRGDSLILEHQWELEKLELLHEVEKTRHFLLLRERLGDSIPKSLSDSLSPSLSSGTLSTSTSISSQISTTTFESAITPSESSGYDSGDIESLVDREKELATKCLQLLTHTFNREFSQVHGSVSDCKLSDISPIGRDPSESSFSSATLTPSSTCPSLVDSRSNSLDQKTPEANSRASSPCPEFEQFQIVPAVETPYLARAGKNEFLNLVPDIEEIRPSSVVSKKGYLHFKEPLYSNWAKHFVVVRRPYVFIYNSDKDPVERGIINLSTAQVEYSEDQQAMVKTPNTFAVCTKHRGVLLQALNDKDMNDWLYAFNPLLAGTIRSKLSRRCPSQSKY
UniProt O60268: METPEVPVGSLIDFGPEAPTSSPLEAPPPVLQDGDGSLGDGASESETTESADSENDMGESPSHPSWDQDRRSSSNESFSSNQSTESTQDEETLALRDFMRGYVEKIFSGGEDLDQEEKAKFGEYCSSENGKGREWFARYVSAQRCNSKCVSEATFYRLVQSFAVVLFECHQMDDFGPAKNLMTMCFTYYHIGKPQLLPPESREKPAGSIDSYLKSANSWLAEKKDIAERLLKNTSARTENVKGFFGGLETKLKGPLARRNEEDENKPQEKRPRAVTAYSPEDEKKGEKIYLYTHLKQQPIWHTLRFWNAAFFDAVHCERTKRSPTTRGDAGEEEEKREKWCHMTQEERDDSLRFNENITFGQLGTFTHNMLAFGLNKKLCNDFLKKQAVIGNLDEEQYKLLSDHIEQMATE
UniProt Q8IXQ5, whole entry, looked up: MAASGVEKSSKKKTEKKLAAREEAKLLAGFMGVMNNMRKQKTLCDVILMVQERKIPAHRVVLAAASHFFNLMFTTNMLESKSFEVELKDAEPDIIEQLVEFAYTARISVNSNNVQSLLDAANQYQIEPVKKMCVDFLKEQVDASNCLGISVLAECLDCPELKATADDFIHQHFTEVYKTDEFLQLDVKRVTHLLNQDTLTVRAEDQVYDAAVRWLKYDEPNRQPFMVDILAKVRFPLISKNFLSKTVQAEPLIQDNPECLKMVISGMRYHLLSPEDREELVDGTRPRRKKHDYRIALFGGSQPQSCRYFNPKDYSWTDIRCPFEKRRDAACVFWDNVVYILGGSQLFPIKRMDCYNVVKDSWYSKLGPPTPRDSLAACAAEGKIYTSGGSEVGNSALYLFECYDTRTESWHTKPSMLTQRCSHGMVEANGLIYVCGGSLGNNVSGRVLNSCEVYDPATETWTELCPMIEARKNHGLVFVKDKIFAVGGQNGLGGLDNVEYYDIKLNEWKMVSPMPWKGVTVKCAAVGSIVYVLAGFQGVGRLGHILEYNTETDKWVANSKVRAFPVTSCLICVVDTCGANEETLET
UniProt P33947: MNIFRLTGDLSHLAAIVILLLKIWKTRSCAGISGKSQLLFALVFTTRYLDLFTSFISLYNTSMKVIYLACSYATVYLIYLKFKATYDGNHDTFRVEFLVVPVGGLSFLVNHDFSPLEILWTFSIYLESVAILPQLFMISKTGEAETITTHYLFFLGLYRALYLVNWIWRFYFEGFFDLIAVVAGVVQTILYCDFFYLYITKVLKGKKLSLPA
UniProt Q8IXV7: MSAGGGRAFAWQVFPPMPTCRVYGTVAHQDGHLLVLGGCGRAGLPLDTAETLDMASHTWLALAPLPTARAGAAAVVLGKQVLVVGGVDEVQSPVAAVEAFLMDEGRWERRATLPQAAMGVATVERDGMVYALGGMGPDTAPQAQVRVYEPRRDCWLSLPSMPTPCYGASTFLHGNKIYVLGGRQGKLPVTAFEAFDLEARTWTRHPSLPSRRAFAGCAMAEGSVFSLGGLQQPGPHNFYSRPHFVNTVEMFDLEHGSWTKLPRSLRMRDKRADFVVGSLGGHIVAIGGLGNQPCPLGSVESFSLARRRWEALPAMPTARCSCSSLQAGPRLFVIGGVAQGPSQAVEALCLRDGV
UniProt Q96EK5: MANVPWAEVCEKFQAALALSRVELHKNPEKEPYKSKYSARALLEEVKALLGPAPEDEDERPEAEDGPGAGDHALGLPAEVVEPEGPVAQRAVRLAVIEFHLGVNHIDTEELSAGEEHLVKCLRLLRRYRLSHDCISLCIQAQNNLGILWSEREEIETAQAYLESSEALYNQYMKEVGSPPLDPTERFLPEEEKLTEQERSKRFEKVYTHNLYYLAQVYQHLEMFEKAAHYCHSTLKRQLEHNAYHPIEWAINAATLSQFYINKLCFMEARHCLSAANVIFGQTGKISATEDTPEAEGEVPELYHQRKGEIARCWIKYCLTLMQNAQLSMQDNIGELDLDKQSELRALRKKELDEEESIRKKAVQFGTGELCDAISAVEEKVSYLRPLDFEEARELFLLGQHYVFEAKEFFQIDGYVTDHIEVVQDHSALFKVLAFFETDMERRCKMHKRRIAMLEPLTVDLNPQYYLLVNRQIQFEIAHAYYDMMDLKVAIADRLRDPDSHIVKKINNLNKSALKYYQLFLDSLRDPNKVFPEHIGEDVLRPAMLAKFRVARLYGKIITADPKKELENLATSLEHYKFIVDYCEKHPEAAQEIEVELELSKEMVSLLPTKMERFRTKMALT

Experiments:
Assay in all cases: log2 fold change, soluble protein after heating vs DMSO (PISA); higher = thermal stabilisation; K562 cells, 10 uM, 30 min; active = over 0.2 and 3.5 SD of the protein, either way, in both replicates (recomputed)
[1] = compound: C1=CC=C(C=C1)[C@H](COC2=CC3=C(C=C2)NC(=O)N3)NC(=O)C4=CC=CN(C4=O)CC5=CC(=C(C=C5)F)F
How it was run: (§1)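 Soluble protein was quantified by TMTpro 16plex LC-MS/MS after channel sums were equalised. It was obtained as the supernatant after 21,000xg for 90 min from pooled aliquots of K562 cells (2×10^6 cells/mL, 10 μM compound, 30 min) heated for 3 min across 48°C-58°C and extracted in PBS with 0.5% NP-40 at 4°C. Thermal stability values are relative to control samples and come from duplicates. They are given as log2 fold changes.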

[2] = compound: CC1=C(SC2=C1C(=N[C@H](C3=NN=C(N32)C)CC(=O)N)C4=CC=C(C=C4)Cl)C
How it was run: as §1

[3] = compound: CC1=C2C(=CC=C1)N=C(N(C2=O)C3=CC=CC=C3C)CN4C=NC5=C(N=CN=C54)N
How it was run: as §1

[4] = compound: Cc1sc2c(c1C)C(c1ccc(Cl)cc1)=N[C@@H](CC(=O)OC(C)(C)C)c1nnc(C)n1-2
How it was run: as §1

[5] = compound: c1ccc([C@@H]2C[C@H]2NC2CCNCC2)cc1
How it was run: as §1

Measured: log2 fold change

KAZN isoform 3 (UniProt Q674X7)
inactive: [1] 0.02 | [2] 0.016 | [3] 0.083 | [4] 0.007 | [5] 0.058

KIF13B (UniProt Q9NQT8)
inactive: [1] 0.005 | [2] 0.011 | [4] -0.113 | [5] -0.21

KLC2 (UniProt Q9H0B6)
inactive: [1] -0.046 | [2] 0.085 | [3] 0.118 | [4] 0.032 | [5] 0

KIF1B isoform 4 (UniProt O60333)
inactive: [1] -0.035 | [2] 0.027 | [3] 0.042 | [4] -0.025 | [5] -0.048

KIAA0513 (UniProt O60268)
inactive: [1] -0.009 | [2] 0.051 | [3] 0.132 | [4] -0.001 | [5] 0.062

KLHL7 (UniProt Q8IXQ5)
inactive: [1] 0.137 | [2] 0.081 | [3] 0.099 | [5] -0.039

KDELR2 (UniProt P33947)
inactive: [1] -0.038 | [2] -0.015 | [3] 0.076 | [4] -0.137 | [5] 0.115

KLHDC8B (UniProt Q8IXV7)
inactive: [1] 0.236 | [2] -0.058 | [3] 0.093 | [4] 0.056 | [5] -0.111

KIFBP (UniProt Q96EK5)
inactive: [1] -0.075 | [2] 0.025 | [3] 0.06 | [4] -0.058 | [5] 0.005

2 successive entries already listed, quoted:
KLHDC8B (UniProt Q8IXV7)
inactive: [1] 0.236 | [2] -0.058 | [3] 0.093 | [4] 0.056 | [5] -0.111

KIFBP (UniProt Q96EK5)
inactive: [1] -0.075 | [2] 0.025 | [3] 0.06 | [4] -0.058 | [5] 0.005
